The list shows a part of the results. Repeats are few or missing, and single values can be far off.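 The apoptosis fraction was the count of cleaved-PARP antibody-stained nuclei relative to all DNA-stained nuclei, imaged in 1,536-well plates. Screening doses were set so most cells survived, and baseline and induced cleaved-PARP levels vary greatly across cell lines.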
Key:
Test in all cases: cleaved PARP positive nuclei fraction relative to DMSO control; melanoma cells; higher = more apoptosis
Conditions in all cases: library dose: low library concentration; 72 h
[1] = tested on: 501Mel
[2] = tested on: A101D
[3] = tested on: A2058
[4] = tested on: A375
[5] = tested on: C32
[6] = tested on: CBRC008 (line from a melanoma biopsy)
[7] = tested on: CBRC014 (line from a melanoma biopsy)
[8] = tested on: CBRC016 (line from a melanoma biopsy)
[9] = tested on: CBRC017 (line from a melanoma biopsy)
[10] = tested on: CBRC034 (line from a melanoma biopsy)
[11] = tested on: COLO792
[12] = tested on: COLO800
[13] = tested on: COLO829
[14] = tested on: G361
[15] = tested on: IPC-298
[16] = tested on: IST-MEL1
[17] = tested on: LB2518-MEL
[18] = tested on: LOXIMVI
[19] = tested on: MEL-HO

Structure (SMILES)	cleaved PARP positive nuclei fraction [1] [%]	cleaved PARP positive nuclei fraction [2] [%]	cleaved PARP positive nuclei fraction [3] [%]	cleaved PARP positive nuclei fraction [4] [%]	cleaved PARP positive nuclei fraction [5] [%]	cleaved PARP positive nuclei fraction [6] [%]	cleaved PARP positive nuclei fraction [7] [%]	cleaved PARP positive nuclei fraction [8] [%]	cleaved PARP positive nuclei fraction [9] [%]	cleaved PARP positive nuclei fraction [10] [%]	cleaved PARP positive nuclei fraction [11] [%]	cleaved PARP positive nuclei fraction [12] [%]	cleaved PARP positive nuclei fraction [13] [%]	cleaved PARP positive nuclei fraction [14] [%]	cleaved PARP positive nuclei fraction [15] [%]	cleaved PARP positive nuclei fraction [16] [%]	cleaved PARP positive nuclei fraction [17] [%]	cleaved PARP positive nuclei fraction [18] [%]	cleaved PARP positive nuclei fraction [19] [%]
CCCCCCCCc1ccc(CCC(N)(CO)CO)cc1 [fingolimod] + Cn1c(=O)n(-c2ccc(C(C)(C)C#N)cc2)c2c3cc(-c4cnc5ccccc5c4)ccc3ncc21 [NVP-BEZ235] (first compound 2 µM, partner dose 0.004 µM)	174	81.8	57.5	585	95	39.4	178	62.2	107	154	96.4	142	136	106	91.6	431	114	76.4	154
CCN(CC)CCNC(=O)c1c(C)[nH]c(/C=C2\C(=O)Nc3ccc(F)cc32)c1C [sunitinib] + C[C@]1(c2nc3c(C(N)=O)cccc3[nH]2)CCCN1 [Veliparib] (first compound 0.4 µM, partner dose 1.4 µM)	185	55.2	33.1	332	156	32.9	106	73.2	106	98.8	152	87.3	96.6	115	89.8	78.7	123	118	132
CC1(C)CCC(c2ccc(Cl)cc2)=C(CN2CCN(c3ccc(C(=O)NS(=O)(=O)c4ccc(N[C@H](CCN5CCOCC5)CSc5ccccc5)c(S(=O)(=O)C(F)(F)F)c4)cc3)CC2)C1 + Cc1ccc(Nc2nccc(N(C)c3ccc4c(C)n(C)nc4c3)n2)cc1S(N)(=O)=O [Pazopanib] (first compound 0.4 µM, partner dose 0.4 µM)	82	378	157	525	139	384	1130	596	244	106	597	129	78	252	87.1	87.9	263	227	1190
C[C@@H](N)c1ccc(C(=O)Nc2ccnc3[nH]ccc23)cc1 + CNC(=O)c1cc(Oc2ccc(NC(=O)Nc3ccc(Cl)c(C(F)(F)F)c3)cc2)ccn1 [sorafenib] (first compound 0.4 µM, partner dose 0.4 µM)	123	136	123	219	89.9	86	119	71.3	208	216	182	78.8	90.6	215	246	116	31.3	114	188
CC1(C)CCC(c2ccc(Cl)cc2)=C(CN2CCN(c3ccc(C(=O)NS(=O)(=O)c4ccc(N[C@H](CCN5CCOCC5)CSc5ccccc5)c(S(=O)(=O)C(F)(F)F)c4)cc3)CC2)C1 + CS(=O)(=O)c1ccc(C(=O)Nc2ccc(Cl)c(-c3ccccn3)c2)c(Cl)c1 [vismodegib] (first compound 0.4 µM, partner dose 1 µM)	177	95	180	739	244	925	333	277	271	89	215	280	111	128	84.7	252	107	231	71.1
CC(=O)O[C@@]12CO[C@@H]1C[C@H](O)[C@@]1(C)C(=O)[C@H](O)C3=C(C)[C@@H](OC(=O)[C@H](O)[C@@H](NC(=O)OC(C)(C)C)c4ccccc4)C[C@@](O)([C@@H](OC(=O)c4ccccc4)[C@H]21)C3(C)C [Docetaxel] + C#Cc1cccc(Nc2ncnc3cc(OCCOC)c(OCCOC)cc23)c1 [erlotinib] (first compound 0.0001 µM, partner dose 0.8 µM)	293	228	5490	4160	224	197	209	376	167	166	971	229	178	1170	332	61.7	530	189	135
CCN(CC)CCNC(=O)c1c(C)[nH]c(/C=C2\C(=O)Nc3ccc(F)cc32)c1C [sunitinib] + Cn1c(Nc2ccc(C(F)(F)F)cc2)nc2cc(Oc3ccnc(-c4ncc(C(F)(F)F)[nH]4)c3)ccc21 [CHIR265] (first compound 0.4 µM, partner dose 0.08 µM)	172	318	255	338	1230	164	189	66.9	89.3	112	169	96.9	105	133	133	154	147	41.4	89.9
NC1(c2ccc(-c3nc4ccn5c(=O)[nH]nc5c4cc3-c3ccccc3)cc2)CCC1 + COCC[n+]1c2c(n(Cc3cnccn3)c1C)C(=O)c1ccccc1C2=O [YM155] (first compound 0.4 µM, partner dose 0.0004 µM)	82.4	57.2	150	456	87.7	730	78.3	173	103	100	106	68.5	228	86.2	103	65.9	150	114	67.7
COc1ccc(C2=N[C@@H](c3ccc(Cl)cc3)[C@@H](c3ccc(Cl)cc3)N2C(=O)N2CCNC(=O)C2)c(OC(C)C)c1 [Nutlin-3] + C[C@]1(O)C[C@@H](c2nc(-c3ccc4ccc(-c5ccccc5)nc4c3)c3c(N)nccn32)C1 [OSI906] (first compound 0.1 µM, partner dose 0.4 µM)	310	57.5	119	432	73.4	114	98.1	162	148	159	43.5	61.1	128	57.2	187	21.1	125	127	70.2
CC1(C)CCC(c2ccc(Cl)cc2)=C(CN2CCN(c3ccc(C(=O)NS(=O)(=O)c4ccc(N[C@H](CCN5CCOCC5)CSc5ccccc5)c(S(=O)(=O)C(F)(F)F)c4)cc3)CC2)C1 + CCCS(=O)(=O)Nc1ccc(F)c(C(=O)c2c[nH]c3ncc(Cl)cc23)c1F [PLX4720] (first compound 0.4 µM, partner dose 0.08 µM)	50.4	250	101	1290	129	482	527	507	472	82.4	191	94.4	80.1	207	418	104	257	1080	58
CCN(CC)CCNC(=O)c1c(C)[nH]c(/C=C2\C(=O)Nc3ccc(F)cc32)c1C [sunitinib] + CC(=O)c1c(C)c2cnc(Nc3ccc(N4CCNCC4)cn3)nc2n(C2CCCC2)c1=O [palbociclib] (first compound 0.4 µM, partner dose 0.04 µM)	204	105	147	248	107	38.7	107	74	189	35.4	52.9	46.9	44.4	46	205	133	30.3	55.4	213
Cn1cnc2c(F)c(Nc3ccc(Br)cc3Cl)c(C(=O)NOCCO)cc21 [selumetinib] + Cn1c(=O)n(-c2ccc(C(C)(C)C#N)cc2)c2c3cc(-c4cnc5ccccc5c4)ccc3ncc21 [NVP-BEZ235] (first compound 0.015 µM, partner dose 0.004 µM)	374	108	78.9	304	93.7	52.3	79.7	108	163	258	162	105	147	183	259	34	168	58.9	86.6
Cn1sc(=O)n(Cc2ccccc2)c1=O + Nc1ncn([C@H]2C[C@H](O)[C@@H](CO)O2)c(=O)n1 [decitabine] (first compound 0.4 µM, partner dose 0.1 µM)	152	66.9	285	194	70.1	147	95	155	85.2	137	112	68.4	154	196	116	70.6	128	148	105
C[C@@H](N)c1ccc(C(=O)Nc2ccnc3[nH]ccc23)cc1 + C=C(c1ccc(C(=O)O)cc1)c1cc2c(cc1C)C(C)(C)CCC2(C)C [Bexarotene] (first compound 0.4 µM, partner dose 2 µM)	114	53.5	141	132	307	113	1090	99.8	104	97.2	193	66.1	90.2	184	46.1	64.4	300	15.1	89.5
Cn1sc(=O)n(Cc2ccccc2)c1=O + CCN(CC)CCNC(=O)c1c(C)[nH]c(/C=C2\C(=O)Nc3ccc(F)cc32)c1C [sunitinib] (first compound 0.4 µM, partner dose 0.4 µM)	74.4	93.2	162	225	24.9	45.3	81.1	45.4	77.5	96	35.2	40.7	92.9	125	75.1	29.6	79	28.8	73.4
CN(c1ncccc1CNc1nc(Nc2ccc3c(c2)CC(=O)N3)ncc1C(F)(F)F)S(C)(=O)=O + CO[C@H]1C[C@@H]2CC[C@@H](C)[C@@](O)(O2)C(=O)C(=O)N2CCCC[C@H]2C(=O)O[C@H]([C@H](C)C[C@@H]2CC[C@@H](OCCO)[C@H](OC)C2)CC(=O)[C@H](C)/C=C(\C)[C@@H](O)[C@@H](OC)C(=O)[C@H](C)C[C@H](C)/C=C/C=C/C=C/1C [everolimus] (first compound 0.08 µM, partner dose 0.02 µM)	391	160	183	624	90.8	237	90.2	125	117	140	154	100	109	74.6	121	82.9	157	191	85.7
